Our source for the CC50 values is publication PMC8124269 (Molecules, 2021).

One series is described as follows: in vitro. As to conditions: African green monkey.
Another series concerns MDCK and A549 cells. The conditions noted are these: cited from earlier work.

Regarding `COc1ccc2cc([C@H](C)C(=O)O)ccc2c1` [Naproxen, naproxen], the CC50 in the series “in vitro” is more than 1000 µM; in the series with MDCK and A549 cells, 1600 ± 300 µM.
